Test [1] has as its target T1, MEX-5(T186A) (C. elegans) (UniProt Q9XUB2).
T1 sequence: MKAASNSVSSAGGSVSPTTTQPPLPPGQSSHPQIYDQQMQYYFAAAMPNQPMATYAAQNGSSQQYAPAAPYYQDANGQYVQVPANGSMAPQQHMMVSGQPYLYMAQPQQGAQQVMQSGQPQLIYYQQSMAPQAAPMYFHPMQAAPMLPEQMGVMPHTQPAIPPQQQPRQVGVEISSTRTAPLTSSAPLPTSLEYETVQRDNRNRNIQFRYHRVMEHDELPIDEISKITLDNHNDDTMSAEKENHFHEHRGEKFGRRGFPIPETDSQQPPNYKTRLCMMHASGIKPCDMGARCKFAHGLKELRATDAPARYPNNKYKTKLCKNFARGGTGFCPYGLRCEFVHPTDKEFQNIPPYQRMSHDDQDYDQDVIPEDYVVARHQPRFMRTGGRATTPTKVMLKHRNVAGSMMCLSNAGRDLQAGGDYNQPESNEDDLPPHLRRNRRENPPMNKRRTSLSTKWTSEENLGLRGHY
Put plainly: two-hybrid; yeast two-hybrid; Gal4-DBD fused to MEX-5 or MEX-5(T186A), Gal4-AD fused to MEX-6 or MEX-6(T190A); selective and nonselective medium; empty Gal4-AD vector as negative control.

Test [2] has as its target T2, MEX-5 (Muscle-EXcess protein 5), wild type (C. elegans) (UniProt Q9XUB2).
T2 sequence: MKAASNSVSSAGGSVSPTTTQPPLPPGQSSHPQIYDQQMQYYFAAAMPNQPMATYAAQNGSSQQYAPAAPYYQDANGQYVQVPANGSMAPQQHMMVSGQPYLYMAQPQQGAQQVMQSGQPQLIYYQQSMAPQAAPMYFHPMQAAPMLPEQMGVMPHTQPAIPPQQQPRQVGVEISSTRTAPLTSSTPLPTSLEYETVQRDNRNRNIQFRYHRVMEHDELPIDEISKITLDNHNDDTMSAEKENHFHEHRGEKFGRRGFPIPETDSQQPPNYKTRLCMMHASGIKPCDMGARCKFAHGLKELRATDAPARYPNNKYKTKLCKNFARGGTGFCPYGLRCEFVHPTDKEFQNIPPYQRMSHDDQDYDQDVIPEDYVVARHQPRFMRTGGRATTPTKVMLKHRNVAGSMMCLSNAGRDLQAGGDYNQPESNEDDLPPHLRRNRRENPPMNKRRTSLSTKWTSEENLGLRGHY
The test is described as above.

No constants are given. Whether binding was seen depends on the method and setting. Some entries that bind do so weakly or less than the wild type.

B1: MEX-6 (Muscle-EXcess protein 6), wild type (protein, UniProt Q09436 1-467)
chain: MTATSNSAPLAGGSLSSSATAQPPQPPPGHQQQHPLPQIYDSQMQYYYGSSMPNQPIPTYTAQNGAPQQFGTPPYYQDANGQFGQVPAQQQMMTAGHPYFYMAQPQQGGQHVAQSGQPQIFYYQQPLGQMAQQAAPMYFHPMQAASTPMLSEQMSMMPQIQSTNPQQSEQLRKSGAQISTTRTVPLTSSTPLPTSREYETVQRDRNRNSQSRYQCPIEHDDLPIDEISKITIDNHNDDTMSAEKENRFNKNRVEKLGRRGFAKPEVDSQLPHNFKTRLCMTHAAGINPCALGARCKFAHGLKELRASDIPTRYPNNKYKTKLCKNFARGGSGVCPYGLRCEFVHPSDTEFQNIPPYQRKMVEEHDSIPEDYVVARYQPRFMHTSGKATTPTKVTLKQRNVAGSMMCLSNTGRDLEAGGDFNHPEINENDLPPHLRRIRRGNPPVTRSRPSFSTKWTSVENLGLRGHY
In the case of B1, the binding result in test [1] and in test [2] was “binds” in each case.

B2: MEX-6(T190A) (protein, UniProt Q09436 1-467)
chain: MTATSNSAPLAGGSLSSSATAQPPQPPPGHQQQHPLPQIYDSQMQYYYGSSMPNQPIPTYTAQNGAPQQFGTPPYYQDANGQFGQVPAQQQMMTAGHPYFYMAQPQQGGQHVAQSGQPQIFYYQQPLGQMAQQAAPMYFHPMQAASTPMLSEQMSMMPQIQSTNPQQSEQLRKSGAQISTTRTVPLTSSAPLPTSREYETVQRDRNRNSQSRYQCPIEHDDLPIDEISKITIDNHNDDTMSAEKENRFNKNRVEKLGRRGFAKPEVDSQLPHNFKTRLCMTHAAGINPCALGARCKFAHGLKELRASDIPTRYPNNKYKTKLCKNFARGGSGVCPYGLRCEFVHPSDTEFQNIPPYQRKMVEEHDSIPEDYVVARYQPRFMHTSGKATTPTKVTLKQRNVAGSMMCLSNTGRDLEAGGDFNHPEINENDLPPHLRRIRRGNPPVTRSRPSFSTKWTSVENLGLRGHY
Turning to B2, the binding result in test [1] is “no binding”; in test [2] it was “binds”.

Source of the values: publication PMC11670235.
